Results are given in words; binding and its absence hold for the method and conditions named. Binding seen in cells or lysates may run through a third protein. These calls come from enrichment with a bait or labelling near it, and not all partners need be listed.
The molecules below were run against GFP-tagged RNF114 wild type (UniProt Q9Y508) (assay: affinity purification with mass spectrometry; GFP pulldown (GFP-TRAP magnetic particles) from RNF114-KO U2OS cells with inducible GFP–RNF114 WT or C176A, untreated or 1 mM H2O2 for 60 min; nondenaturing; on-bead trypsin digestion, DIA MS; four biological replicates).

Sequences of proteins named here, by UniProt entry; tags and fusion partners are left off.
UniProt Q9Y508: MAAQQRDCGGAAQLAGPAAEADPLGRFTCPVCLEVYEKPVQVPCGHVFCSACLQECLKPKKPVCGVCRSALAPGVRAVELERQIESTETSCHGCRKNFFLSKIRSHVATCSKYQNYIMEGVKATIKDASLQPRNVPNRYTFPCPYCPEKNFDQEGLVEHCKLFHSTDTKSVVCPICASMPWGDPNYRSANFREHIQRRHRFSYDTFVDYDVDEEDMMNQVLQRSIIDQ
UniProt Q9H0J9: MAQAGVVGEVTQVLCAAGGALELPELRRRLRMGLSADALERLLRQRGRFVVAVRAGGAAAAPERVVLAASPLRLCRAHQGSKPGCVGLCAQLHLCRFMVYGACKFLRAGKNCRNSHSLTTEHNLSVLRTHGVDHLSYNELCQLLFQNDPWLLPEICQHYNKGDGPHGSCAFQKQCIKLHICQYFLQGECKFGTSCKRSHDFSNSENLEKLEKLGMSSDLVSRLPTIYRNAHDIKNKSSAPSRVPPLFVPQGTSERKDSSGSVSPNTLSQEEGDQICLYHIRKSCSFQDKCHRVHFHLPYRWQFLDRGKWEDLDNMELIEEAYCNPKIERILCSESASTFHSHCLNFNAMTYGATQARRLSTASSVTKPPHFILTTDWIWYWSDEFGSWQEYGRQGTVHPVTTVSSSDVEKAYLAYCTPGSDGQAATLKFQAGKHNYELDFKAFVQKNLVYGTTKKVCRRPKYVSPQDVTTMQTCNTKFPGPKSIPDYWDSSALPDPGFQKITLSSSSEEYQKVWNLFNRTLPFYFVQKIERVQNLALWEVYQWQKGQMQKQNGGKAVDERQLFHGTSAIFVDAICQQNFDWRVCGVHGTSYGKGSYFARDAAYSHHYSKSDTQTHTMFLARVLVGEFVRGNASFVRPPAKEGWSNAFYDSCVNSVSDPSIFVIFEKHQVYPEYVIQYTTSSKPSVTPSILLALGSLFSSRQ
UniProt P18887: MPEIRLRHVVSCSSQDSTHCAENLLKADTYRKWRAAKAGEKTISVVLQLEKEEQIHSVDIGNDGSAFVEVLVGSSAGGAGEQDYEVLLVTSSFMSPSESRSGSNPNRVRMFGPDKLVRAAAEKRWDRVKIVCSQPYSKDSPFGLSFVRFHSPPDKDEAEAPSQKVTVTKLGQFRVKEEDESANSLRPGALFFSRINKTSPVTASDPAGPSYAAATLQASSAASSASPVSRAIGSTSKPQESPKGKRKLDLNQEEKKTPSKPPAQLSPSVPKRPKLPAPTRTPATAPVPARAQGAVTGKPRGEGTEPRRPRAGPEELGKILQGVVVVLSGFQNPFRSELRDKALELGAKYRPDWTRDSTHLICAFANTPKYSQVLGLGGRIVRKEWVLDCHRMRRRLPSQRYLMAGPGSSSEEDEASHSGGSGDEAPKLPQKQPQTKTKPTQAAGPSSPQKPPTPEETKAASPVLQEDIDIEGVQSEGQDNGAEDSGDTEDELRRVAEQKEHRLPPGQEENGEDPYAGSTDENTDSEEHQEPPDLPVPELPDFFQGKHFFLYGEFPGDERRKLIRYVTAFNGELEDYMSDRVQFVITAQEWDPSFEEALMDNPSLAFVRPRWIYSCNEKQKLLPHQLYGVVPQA

Molecule	binding
ADP-ribosyltransferase PARP12 (from UniProt Q9H0J9 1-701)	binds
XRCC1 (from UniProt P18887 1-633)	binds
LIG3 (protein, UniProt P49916 43-1009) LLHGHPLFLRRKPVLSFQGSHLRSRATYLVFLPGLHVGLCSGPCEMAEQRFCVDYAKRGTAGCKKCKEKIVKGVCRIGKVVPNPFSESGGDMKEWYHIKCMFEKLERARATTKKIEDLTELEGWEELEDNEKEQITQHIADLSSKAAGTPKKKAVVQAKLTTTGQVTSPVKGASFVTSTNPRKFSGFSAKPNNSGEAPSSPTPKRSLSSSKCDPRHKDCLLREFRKLCAMVADNPSYNTKTQIIQDFLRKGSAGDGFHGDVYLTVKLLLPGVIKTVYNLNDKQIVKLFSRIFNCNPDDMARDLEQGDVSETIRVFFEQSKSFPPAAKSLLTIQEVDEFLLRLSKLTKEDEQQQALQDIASRCTANDLKCIIRLIKHDLKMNSGAKHVLDALDPNAYEAFKASRNLQDVVERVLHNAQEVEKEPGQRRALSVQASLMTPVQPMLAEACKSVEYAMKKCPNGMFSEIKYDGERVQVHKNGDHFSYFSRSLKPVLPHKVAHFKDYIPQAFPGGHSMILDSEVLLIDNKTGKPLPFGTLGVHKKAAFQDANVCLFVFDCIYFNDVSLMDRPLCERRKFLHDNMVEIPNRIMFSEMKRVTKALDLADMITRVIQEGLEGLVLKDVKGTYEPGKRHWLKVKKDYLNEGAMADTADLVVLGAFYGQGSKGGMMSIFLMGCYDPGSQKWCTVTKCAGGHDDATLARLQNELDMVKISKDPSKIPSWLKVNKIYYPDFIVPDPKKAAVWEITGAEFSKSEAHTADGISIRFPRCTRIRDDKDWKSATNLPQLKELYQLSKEKADFTVVAGDEGSSTTGGSSEENKGPSGSAVSRKAPSKPSASTKKAEGKLSNSNSKDGNMQTAKPSAMKVGEKLATKSSPVKVGEKRKAADETLCQTKVLLDIFTGVRLYLPPSTPDFSRLRRYFVAFDGDLVQEFDMTSATHVLGSRDKNPAAQQVSPEWIWACIRKRRLVAPC	binds

Source: publication PMC12568645
